In test [1] the target is T1, rat MCT4 (rMCT4), lactate-H+ cotransporter MCT4 (rat) (UniProt O35910).
T1 sequence: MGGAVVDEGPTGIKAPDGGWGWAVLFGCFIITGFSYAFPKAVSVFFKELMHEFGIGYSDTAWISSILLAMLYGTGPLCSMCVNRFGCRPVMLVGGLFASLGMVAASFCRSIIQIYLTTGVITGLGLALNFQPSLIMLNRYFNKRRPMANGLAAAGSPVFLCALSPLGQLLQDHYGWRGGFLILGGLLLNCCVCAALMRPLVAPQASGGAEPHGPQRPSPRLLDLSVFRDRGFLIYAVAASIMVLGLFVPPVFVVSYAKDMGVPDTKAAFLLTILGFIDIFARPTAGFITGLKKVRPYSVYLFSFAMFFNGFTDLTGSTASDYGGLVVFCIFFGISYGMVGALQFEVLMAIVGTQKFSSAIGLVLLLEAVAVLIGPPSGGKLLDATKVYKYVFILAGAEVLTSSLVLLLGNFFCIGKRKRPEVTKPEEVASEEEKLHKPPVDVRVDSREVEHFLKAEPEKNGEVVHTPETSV
Description: co-IP; MDA-MB-231 cells transfected with CD147 and MCT4 plasmids; NP40 lysis buffer (50 mM Tris-HCl pH 7.4, 140 mM NaCl, 1% IGEPAL); lysate incubated overnight at 4°C with anti-CD147 or anti-MCT4 antibody, Dynabeads Protein G, five washes in lysis buffer; western blot.

Amino acid sequences for entries named in this document (tags omitted). A change or cut given only in a name is not applied to a line headed by its entry.
UniProt P35613: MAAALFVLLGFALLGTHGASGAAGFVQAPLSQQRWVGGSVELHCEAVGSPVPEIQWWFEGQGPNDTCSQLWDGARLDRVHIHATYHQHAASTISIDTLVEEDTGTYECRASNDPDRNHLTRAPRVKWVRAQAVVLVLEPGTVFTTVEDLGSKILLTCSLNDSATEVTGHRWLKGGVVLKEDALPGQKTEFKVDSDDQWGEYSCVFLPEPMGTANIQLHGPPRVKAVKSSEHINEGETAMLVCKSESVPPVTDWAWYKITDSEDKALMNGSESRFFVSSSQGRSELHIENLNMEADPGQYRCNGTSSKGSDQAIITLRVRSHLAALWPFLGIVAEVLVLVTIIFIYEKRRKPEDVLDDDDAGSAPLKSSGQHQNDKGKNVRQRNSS

Test [2] deals with CD147 (basigin) (UniProt P35613). Described as above.

No constants are given. Whether binding was seen depends on the method and setting. Binding seen in cells or lysates may run through a third protein. A result given as binding can be weak or reduced; the word gives no strength.

Take CD147 (basigin) (from UniProt P35613-2): the binding entry in test [1] is “binds”.

B1: rat MCT4 (rMCT4), lactate-H+ cotransporter MCT4 (protein, UniProt O35910 1-471)
chain: MGGAVVDEGPTGIKAPDGGWGWAVLFGCFIITGFSYAFPKAVSVFFKELMHEFGIGYSDTAWISSILLAMLYGTGPLCSMCVNRFGCRPVMLVGGLFASLGMVAASFCRSIIQIYLTTGVITGLGLALNFQPSLIMLNRYFNKRRPMANGLAAAGSPVFLCALSPLGQLLQDHYGWRGGFLILGGLLLNCCVCAALMRPLVAPQASGGAEPHGPQRPSPRLLDLSVFRDRGFLIYAVAASIMVLGLFVPPVFVVSYAKDMGVPDTKAAFLLTILGFIDIFARPTAGFITGLKKVRPYSVYLFSFAMFFNGFTDLTGSTASDYGGLVVFCIFFGISYGMVGALQFEVLMAIVGTQKFSSAIGLVLLLEAVAVLIGPPSGGKLLDATKVYKYVFILAGAEVLTSSLVLLLGNFFCIGKRKRPEVTKPEEVASEEEKLHKPPVDVRVDSREVEHFLKAEPEKNGEVVHTPETSV
As to B1, in test [2], the binding entry is given as “binds”.

The record behind these values is publication PMC11112124.
